Source: US11666558B2, “Methods of treating intraocular pressure with activators of Tie-2” (EyePoint Pharmaceuticals, Inc., priority 2015, dated 2023)
Further values from the same series stand in other lists.

Assays:
[1] = Plasma concentrations and pharmacokinetic parameters after topical ocular, subcutaneous and intravitreal administration; type: in vivo, New Zealand White rabbits; settings: intravitreal 2.5 mg/eye (~1.54 mg/kg), suspension; 1.0 hr
Procedure: (§1) To measure the concentration of Compound 1 in plasma and ocular tissues following topical ocular, subcutaneous, and intravitreal administration, New Zealand White rabbits were administered Compound 1, and plasma and ocular samples were collected at pre-determined time points. Compound 1 formulations were prepared fresh on each day of dosing.
New Zealand White rabbits weighing 2.5 to 3.5 kg were used on this study. Rabbits were housed one per cage. Animals were not fasted and only healthy animals with no ocular illness were used. Two rabbits per group were sacrificed at each of four ocular tissue sampling time points for a total of eight rabbits per group. […]
Each blood sample was collected on Day 3 post dose at pre-determined time points from the rabbits via an ear vessel and placed into chilled polypropylene tubes containing sodium heparin as an anticoagulant. […]
An LC-MS/MS method was developed for the determination of Compound 1 in rabbit aqueous tissues (plasma, aqueous and vitreous humor) and solid ocular tissue samples. A pre-study standard curve was analyzed to determine the specificity, range, and lower limit of quantitation of the method. Plasma and tissue homogenate study samples were extracted and analyzed. […]
Pharmacokinetic parameters were calculated from the time course of the plasma concentration. […]

[2] = Ocular tissue concentrations (aqueous humor, vitreous humor, iris, retina, choroid, cornea) after topical ocular, subcutaneous and intravitreal administration; type: in vivo, New Zealand White rabbits; settings: Group 5 intravitreal 2.5 mg per eye; 72 hr
Procedure: as §1
Ocular tissue samples from both eyes of each animal were collected and weights were recorded. Plasma and ocular tissue sample concentrations of Compound 1 were determined by LC-MS/MS.
New Zealand White rabbits weighing 2.5 to 3.5 kg were used on this study. Rabbits were housed one per cage. Animals were not fasted and only healthy animals with no ocular illness were used. Two rabbits per group were sacrificed at each of four ocular tissue sampling time points for a total of eight rabbits per group.
Animals were anesthetized for ocular (topical) and intravitreal dosing following the 12IA7 IACUC protocol. Each rabbit received a bolus dose of test formulation either via topical ocular administration 3 times daily on Days 1 and 2 (at 0, 6, and 12 hours), and once on Day 3 (at 0 hours) into both eyes; via intravitreal administration into both eyes once on Day 1 (at 0 hours); or via subcutaneous administration 2 times daily on Days 1 and 2 (at 0 and 8 hours) and once daily on Day 3 (at 0 hours). Doses were given within an approximately 1 hour window each day where applicable.
On Day 1, for intravitreal administration, or on Day 3, for topical ocular and subcutaneous administration, at the appropriate ocular tissue collection time points, animals were euthanized and both eyes were enucleated immediately. Following enucleation, each eye was rinsed with phosphate-buffered saline. Ocular tissue samples from both eyes of each animal were collected at predetermined time points and weights were recorded. All the samples were frozen immediately on dry ice, and stored at −60° C. to −80° C. pending bioanalysis.
An LC-MS/MS method was developed for the determination of Compound 1 in rabbit aqueous tissues (plasma, aqueous and vitreous humor) and solid ocular tissue samples. A pre-study standard curve was analyzed to determine the specificity, range, and lower limit of quantitation of the method. Plasma and tissue homogenate study samples were extracted and analyzed. All the samples were treated identically to the standards.
One eight-point standard curve was used in each analytical batch. To be accepted, each batch must have had at least five of eight standards with accuracy within ±20% of nominal, except at the lower limit of quantification (LLOQ), where ±25% was acceptable.
Concentration versus time data is plotted in FIGS. 3-16. All data are expressed as ng/g of the free drug. Samples that were below the limit of quantitation (0.2 ng/mL) were not used in the calculation of averages.

## COC(=O)N[C@@H](Cc1ccccc1)C(=O)N[C@@H](Cc1ccc(NS(=O)(=O)O)cc1)c1csc(-c2cccs2)n1 [Compound 1 free acid]
[1]
  plasma Conc., individual rabbit: 16.0 ng/mL
[2]
  vitreous humor Conc., individual eyes (OD, OS): 47700 ng/mL
